According to the supplement of paper PMC7877785:
± gives the uncertainty stated by the source. The uncertainty is large for many entries.

Test: self-splicing fitness, log relative to wild type (ln ratio); higher = more splicing; Tetrahymena group I intron in knt gene, E. coli kanamycin selection, DiMSum; sequences stand for … in CUCUCU…GGAGGGAAAAGUUAUCAGGCAUGCACCUGGUAGCUAGUCUUUAAACCAAUAGAUUGCAUCGGUUUAAAAGGCAAGACCGUCAAAUUGCGGGAAAGGGGUCAACAGCCGUUCAGUACCAAGUCUCAGGGGAAACUUUGAGAUGGCCUUGCAAAGGGUAUGGUAAUAAGCUGACGGACAUGGUCCUAACCACGCAGCCAAGUCCUAAGUCAACAGAUCUUCUGUUGAUAUGGAUGCAGUUCACAGACUAAAUGUCGGUCGGGGAAGAUGUAUUCUUCUCAUAAGAUAUAGUCGGACCUCUCCUUAAUGGGAGCUAGCGGAUGAAGUGAUGCAACACUGGAGCCGCUGGGAACUAAUUUGUAUGCGAAAGUAUAUUGAUUAGUUUUGGAGUACUCGUGGUCG
Procedure, shortened: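 A randomised library covering all eight P1ex-region intron nucleotides was built with the intron in the knt kanamycin-resistance gene on pET-22b(+) and held in E. coli BL21(DE3). Cells were grown overnight at 37°C or 30°C on LB agar, with or without 25 μg/mL kanamycin, plus 100 μg/mL carbenicillin, 50 μM IPTG and 0.2% rhamnose, and pooled colonies were amplicon-sequenced on an Illumina HiSeq 2500. DiMSum fitness is the error-weighted combination of wild-type-normalised replicate fold changes, kanamycin versus none.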

Sequence | self-splicing fitness (ln) (30 °C) | self-splicing fitness (ln) (37 °C)
GAACAGCAAUAUUACGGUCG | -1.17 ± 0.069 | -0.372 ± 0.098
UAGUAGCAAUAUUACGUCAU | – | -2.56 ± 0.62
UCUAAGCAAUAUUACGGCUC | -4.37 ± 0.73 | –
GGAAAGCAAUAUUACGUCGC | -0.897 ± 0.17 | -0.926 ± 0.2
CUUUAGCAAUAUUACGGAAA | -3.35 ± 1 | –
CAUGAGCAAUAUUACGAAGC | -3.46 ± 1.1 | –
UAGGAGCAAUAUUACGUUGC | -2.47 ± 0.78 | -2.37 ± 0.63
AUGUAGCAAUAUUACGGUGC | – | -3.77 ± 1
AGCGAGCAAUAUUACGUGAC | – | -3.76 ± 0.59
AUUGAGCAAUAUUACGAGCA | -3.01 ± 0.47 | -1.93 ± 0.42
AUCGAGCAAUAUUACGGUGG | -3.5 ± 0.53 | –
CUUGAGCAAUAUUACGAUUU | -5.05 ± 0.58 | –
CGGAAGCAAUAUUACGGUGG | -0.759 ± 0.099 | -0.586 ± 0.1
UCGGAGCAAUAUUACGUGAA | -3.41 ± 0.39 | -1.63 ± 0.14
AACGAGCAAUAUUACGCAGU | -2.87 ± 0.23 | -2.52 ± 0.29
GGCUAGCAAUAUUACGCCUU | -4.29 ± 1.1 | –
UCUAAGCAAUAUUACGGGGC | -4.42 ± 0.59 | –
GUGGAGCAAUAUUACGCACU | – | -3.23 ± 0.75
CCGAAGCAAUAUUACGGUUA | -3.9 ± 0.72 | –
CGAAAGCAAUAUUACGGCAU | -2.26 ± 0.12 | -0.29 ± 0.089

Look-ups from the list:
self-splicing fitness (ln) (30 °C), CAUGAGCAAUAUUACGAAGC is entered as -3.46 ± 1.1
self-splicing fitness (ln) (37 °C), GGAAAGCAAUAUUACGUCGC is entered as -0.926 ± 0.2
self-splicing fitness (ln) (30 °C), UCUAAGCAAUAUUACGGCUC is entered as -4.37 ± 0.73
self-splicing fitness (ln) (30 °C), UCGGAGCAAUAUUACGUGAA is entered as -3.41 ± 0.39
self-splicing fitness (ln) (37 °C), GAACAGCAAUAUUACGGUCG is entered as -0.372 ± 0.098

(listing goes on)

Sequence | self-splicing fitness (ln) (30 °C) | self-splicing fitness (ln) (37 °C)
GUUUAGCAAUAUUACGCAGA | -2.86 ± 0.78 | -4.28 ± 0.6
AACGAGCAAUAUUACGGCGA | -1.95 ± 0.23 | -0.978 ± 0.2
GCGGAGCAAUAUUACGCCAA | – | -1.91 ± 0.78
CCAAAGCAAUAUUACGGACC | -6.08 ± 1 | –
UGCGAGCAAUAUUACGCAAG | – | -2.11 ± 0.51
GCUGAGCAAUAUUACGCCCC | -2.79 ± 1.2 | -1.67 ± 0.53
GGUCAGCAAUAUUACGGGGG | -3.31 ± 0.54 | –
GGACAGCAAUAUUACGGCCC | – | -0.0592 ± 0.61
CGAAAGCAAUAUUACGACGG | 0.0482 ± 0.089 | 0.569 ± 0.12
UUCUAGCAAUAUUACGCAGC | -3.92 ± 0.73 | –
UCGCAGCAAUAUUACGUCUC | -4.83 ± 0.72 | –
GUAGAGCAAUAUUACGAGCU | -2.67 ± 0.22 | -1.66 ± 0.23
CUGUAGCAAUAUUACGAUGC | – | -4.49 ± 0.51
UAGUAGCAAUAUUACGACAC | -3.28 ± 0.61 | –
UUAGAGCAAUAUUACGUGUC | -3.51 ± 0.52 | -3.05 ± 0.74
GCAGAGCAAUAUUACGGCUG | – | -2.69 ± 0.62
GGGGAGCAAUAUUACGUUGG | -1.93 ± 1.2 | -1.26 ± 0.73
UCGCAGCAAUAUUACGCAGU | -3.58 ± 0.2 | -2.35 ± 0.2
GUUGAGCAAUAUUACGCGCC | – | -1.29 ± 0.69
UACGAGCAAUAUUACGGCCC | – | -1.3 ± 0.6

Sequence | self-splicing fitness (ln) (30 °C) | self-splicing fitness (ln) (37 °C)
ACGGAGCAAUAUUACGAACC | -2.48 ± 1.1 | 0.224 ± 0.84
UCAAAGCAAUAUUACGACUU | -4 ± 0.23 | -2.36 ± 0.17
AAACAGCAAUAUUACGUGCC | -2 ± 0.1 | -1.31 ± 0.13
UGGCAGCAAUAUUACGCUCC | – | -2.9 ± 1.1
UUAUAGCAAUAUUACGUUAU | -3.9 ± 1 | –
AUCUAGCAAUAUUACGGGUA | -1.97 ± 0.15 | -1.49 ± 0.12
AGGUAGCAAUAUUACGCAGU | -2.979 ± 0.021 | -1.68 ± 0.035
UUGGAGCAAUAUUACGUGGG | – | -2.48 ± 0.62
CCCAAGCAAUAUUACGAACC | -2.18 ± 0.84 | –
UCCAAGCAAUAUUACGUAAA | -1.12 ± 0.089 | -0.00199 ± 0.11
UAACAGCAAUAUUACGCAAG | -2.08 ± 0.078 | -2.23 ± 0.074
GGGUAGCAAUAUUACGGUAG | -5.34 ± 1 | –
CCGGAGCAAUAUUACGAUCU | -1.74 ± 0.57 | -1.42 ± 0.68
GGGCAGCAAUAUUACGCUUC | -3.18 ± 0.52 | –
GGCGAGCAAUAUUACGUACG | -2.43 ± 0.18 | -1.35 ± 0.22
CUGAAGCAAUAUUACGGCGA | – | -2.8 ± 0.6
UGGGAGCAAUAUUACGGUUG | – | -3.23 ± 0.53
CGUGAGCAAUAUUACGCUCC | -1.32 ± 1.4 | –
GUCGAGCAAUAUUACGGGGC | -3.92 ± 0.6 | –
